# ± gives the standard deviation of the averaged measurements. This is a selection; strong and weak results do not stand in their true shares. Small differences around the control level are noise.
# The chains behind the UniProt entries cited, without tags or fusion partners. Where a name states a change or a piece, a line headed by the entry shows the natural chain unless it says otherwise.
# UniProt Q8NBZ0, whole entry: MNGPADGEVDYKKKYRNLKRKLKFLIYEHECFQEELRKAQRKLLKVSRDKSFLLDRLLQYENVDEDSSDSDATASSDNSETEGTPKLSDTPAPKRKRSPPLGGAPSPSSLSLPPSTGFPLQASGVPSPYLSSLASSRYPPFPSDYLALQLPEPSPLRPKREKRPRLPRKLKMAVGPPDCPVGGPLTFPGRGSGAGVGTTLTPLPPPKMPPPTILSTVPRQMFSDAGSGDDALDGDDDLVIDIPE
# UniProt Q9Y4D8: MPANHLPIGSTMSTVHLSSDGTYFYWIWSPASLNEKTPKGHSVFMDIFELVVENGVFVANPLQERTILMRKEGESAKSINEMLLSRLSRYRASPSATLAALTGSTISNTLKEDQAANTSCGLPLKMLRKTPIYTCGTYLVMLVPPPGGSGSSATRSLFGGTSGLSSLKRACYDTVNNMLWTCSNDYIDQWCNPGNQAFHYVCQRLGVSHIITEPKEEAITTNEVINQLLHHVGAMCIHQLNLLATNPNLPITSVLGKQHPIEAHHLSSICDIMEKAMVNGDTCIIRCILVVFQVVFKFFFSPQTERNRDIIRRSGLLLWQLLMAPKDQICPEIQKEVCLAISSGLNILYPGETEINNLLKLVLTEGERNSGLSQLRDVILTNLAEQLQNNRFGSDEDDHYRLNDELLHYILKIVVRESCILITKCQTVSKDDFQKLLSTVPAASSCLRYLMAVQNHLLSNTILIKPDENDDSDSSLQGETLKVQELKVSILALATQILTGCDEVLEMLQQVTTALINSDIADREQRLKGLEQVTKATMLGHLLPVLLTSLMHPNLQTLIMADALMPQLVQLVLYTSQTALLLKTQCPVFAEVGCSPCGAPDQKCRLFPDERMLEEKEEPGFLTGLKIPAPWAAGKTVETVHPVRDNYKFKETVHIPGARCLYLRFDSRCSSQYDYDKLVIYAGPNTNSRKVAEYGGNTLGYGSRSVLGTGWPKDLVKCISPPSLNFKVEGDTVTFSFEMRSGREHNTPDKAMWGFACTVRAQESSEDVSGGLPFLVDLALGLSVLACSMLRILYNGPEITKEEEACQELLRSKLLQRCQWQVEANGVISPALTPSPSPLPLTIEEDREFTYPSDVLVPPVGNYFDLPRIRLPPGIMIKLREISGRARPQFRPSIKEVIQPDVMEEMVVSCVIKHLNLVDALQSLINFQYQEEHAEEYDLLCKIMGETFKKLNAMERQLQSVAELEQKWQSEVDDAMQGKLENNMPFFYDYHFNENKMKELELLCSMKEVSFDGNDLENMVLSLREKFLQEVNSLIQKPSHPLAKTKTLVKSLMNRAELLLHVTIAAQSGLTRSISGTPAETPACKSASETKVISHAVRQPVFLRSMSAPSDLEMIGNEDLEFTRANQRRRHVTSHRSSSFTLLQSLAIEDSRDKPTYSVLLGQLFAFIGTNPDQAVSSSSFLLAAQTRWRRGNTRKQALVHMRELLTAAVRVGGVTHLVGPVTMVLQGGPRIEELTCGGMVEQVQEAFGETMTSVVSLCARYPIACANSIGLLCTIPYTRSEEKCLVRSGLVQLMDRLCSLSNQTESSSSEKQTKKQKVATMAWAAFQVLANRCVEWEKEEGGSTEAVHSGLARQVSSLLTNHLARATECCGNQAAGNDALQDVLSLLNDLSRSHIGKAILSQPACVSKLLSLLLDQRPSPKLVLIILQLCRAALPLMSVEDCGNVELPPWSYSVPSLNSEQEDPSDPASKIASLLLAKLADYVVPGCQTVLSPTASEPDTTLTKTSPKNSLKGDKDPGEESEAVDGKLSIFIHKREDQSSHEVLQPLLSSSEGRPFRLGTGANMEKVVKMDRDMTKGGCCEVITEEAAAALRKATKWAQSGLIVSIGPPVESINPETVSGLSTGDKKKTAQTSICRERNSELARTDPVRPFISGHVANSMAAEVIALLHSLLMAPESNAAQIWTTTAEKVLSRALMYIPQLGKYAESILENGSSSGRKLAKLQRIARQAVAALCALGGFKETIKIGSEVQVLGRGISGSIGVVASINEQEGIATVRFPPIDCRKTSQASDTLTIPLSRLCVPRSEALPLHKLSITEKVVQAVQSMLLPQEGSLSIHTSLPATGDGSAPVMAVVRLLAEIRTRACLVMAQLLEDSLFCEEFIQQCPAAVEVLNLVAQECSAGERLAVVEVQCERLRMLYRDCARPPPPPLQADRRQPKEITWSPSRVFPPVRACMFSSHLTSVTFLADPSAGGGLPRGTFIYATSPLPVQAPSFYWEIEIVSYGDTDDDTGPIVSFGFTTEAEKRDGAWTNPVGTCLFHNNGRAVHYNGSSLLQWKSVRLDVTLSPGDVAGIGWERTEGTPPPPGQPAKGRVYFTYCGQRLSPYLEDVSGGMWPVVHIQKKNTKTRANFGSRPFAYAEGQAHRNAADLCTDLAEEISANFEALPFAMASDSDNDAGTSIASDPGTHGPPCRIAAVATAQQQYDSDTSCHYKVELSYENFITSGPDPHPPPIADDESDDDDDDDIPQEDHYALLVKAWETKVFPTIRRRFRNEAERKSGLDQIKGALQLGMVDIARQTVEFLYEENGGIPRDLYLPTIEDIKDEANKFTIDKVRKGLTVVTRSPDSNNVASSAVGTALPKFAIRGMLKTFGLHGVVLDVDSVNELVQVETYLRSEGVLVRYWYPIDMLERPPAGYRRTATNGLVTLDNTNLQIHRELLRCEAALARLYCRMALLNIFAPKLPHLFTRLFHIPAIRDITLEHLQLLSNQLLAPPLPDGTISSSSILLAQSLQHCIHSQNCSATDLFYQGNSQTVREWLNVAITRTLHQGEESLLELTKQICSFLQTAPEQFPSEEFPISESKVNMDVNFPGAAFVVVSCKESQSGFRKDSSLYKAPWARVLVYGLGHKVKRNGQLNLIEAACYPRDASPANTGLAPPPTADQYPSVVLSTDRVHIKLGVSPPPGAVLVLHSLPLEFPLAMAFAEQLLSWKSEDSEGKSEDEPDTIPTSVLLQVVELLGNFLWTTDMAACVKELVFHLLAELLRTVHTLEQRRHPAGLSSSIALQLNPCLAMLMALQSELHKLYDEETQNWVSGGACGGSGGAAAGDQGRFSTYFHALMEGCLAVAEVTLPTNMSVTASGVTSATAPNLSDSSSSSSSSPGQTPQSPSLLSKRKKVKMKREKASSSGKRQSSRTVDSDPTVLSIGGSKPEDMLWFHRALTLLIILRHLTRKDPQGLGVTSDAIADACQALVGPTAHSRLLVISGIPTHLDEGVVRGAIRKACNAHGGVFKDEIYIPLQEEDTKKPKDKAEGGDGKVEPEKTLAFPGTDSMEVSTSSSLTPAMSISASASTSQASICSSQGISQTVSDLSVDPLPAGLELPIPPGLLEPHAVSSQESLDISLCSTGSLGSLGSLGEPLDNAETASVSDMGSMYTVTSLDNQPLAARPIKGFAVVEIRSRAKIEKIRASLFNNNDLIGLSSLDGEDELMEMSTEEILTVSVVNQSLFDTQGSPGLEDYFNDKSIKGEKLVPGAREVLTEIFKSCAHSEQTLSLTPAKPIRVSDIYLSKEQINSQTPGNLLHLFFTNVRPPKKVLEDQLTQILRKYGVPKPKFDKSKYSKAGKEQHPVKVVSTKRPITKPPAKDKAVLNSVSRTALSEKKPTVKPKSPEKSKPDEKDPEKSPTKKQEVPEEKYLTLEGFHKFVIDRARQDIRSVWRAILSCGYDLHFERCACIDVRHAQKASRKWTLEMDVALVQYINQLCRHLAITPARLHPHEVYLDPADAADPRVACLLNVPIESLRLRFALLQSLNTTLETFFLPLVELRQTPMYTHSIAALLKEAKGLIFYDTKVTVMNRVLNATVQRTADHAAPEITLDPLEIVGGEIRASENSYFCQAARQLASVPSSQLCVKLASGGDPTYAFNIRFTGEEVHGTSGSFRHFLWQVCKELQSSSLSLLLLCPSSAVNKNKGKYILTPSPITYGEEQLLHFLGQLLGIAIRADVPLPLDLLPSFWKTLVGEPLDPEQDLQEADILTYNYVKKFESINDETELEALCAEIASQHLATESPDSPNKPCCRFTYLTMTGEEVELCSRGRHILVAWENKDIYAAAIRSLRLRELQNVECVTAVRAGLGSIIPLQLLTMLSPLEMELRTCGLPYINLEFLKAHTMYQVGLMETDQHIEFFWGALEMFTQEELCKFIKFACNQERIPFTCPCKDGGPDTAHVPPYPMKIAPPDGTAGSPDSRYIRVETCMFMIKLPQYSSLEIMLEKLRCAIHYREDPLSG
# UniProt Q8WUD4: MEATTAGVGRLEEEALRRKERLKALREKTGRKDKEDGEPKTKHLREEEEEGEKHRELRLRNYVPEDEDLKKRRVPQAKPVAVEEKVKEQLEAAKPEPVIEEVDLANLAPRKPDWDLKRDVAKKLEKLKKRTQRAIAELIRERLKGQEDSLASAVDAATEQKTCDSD
# UniProt Q86UP2: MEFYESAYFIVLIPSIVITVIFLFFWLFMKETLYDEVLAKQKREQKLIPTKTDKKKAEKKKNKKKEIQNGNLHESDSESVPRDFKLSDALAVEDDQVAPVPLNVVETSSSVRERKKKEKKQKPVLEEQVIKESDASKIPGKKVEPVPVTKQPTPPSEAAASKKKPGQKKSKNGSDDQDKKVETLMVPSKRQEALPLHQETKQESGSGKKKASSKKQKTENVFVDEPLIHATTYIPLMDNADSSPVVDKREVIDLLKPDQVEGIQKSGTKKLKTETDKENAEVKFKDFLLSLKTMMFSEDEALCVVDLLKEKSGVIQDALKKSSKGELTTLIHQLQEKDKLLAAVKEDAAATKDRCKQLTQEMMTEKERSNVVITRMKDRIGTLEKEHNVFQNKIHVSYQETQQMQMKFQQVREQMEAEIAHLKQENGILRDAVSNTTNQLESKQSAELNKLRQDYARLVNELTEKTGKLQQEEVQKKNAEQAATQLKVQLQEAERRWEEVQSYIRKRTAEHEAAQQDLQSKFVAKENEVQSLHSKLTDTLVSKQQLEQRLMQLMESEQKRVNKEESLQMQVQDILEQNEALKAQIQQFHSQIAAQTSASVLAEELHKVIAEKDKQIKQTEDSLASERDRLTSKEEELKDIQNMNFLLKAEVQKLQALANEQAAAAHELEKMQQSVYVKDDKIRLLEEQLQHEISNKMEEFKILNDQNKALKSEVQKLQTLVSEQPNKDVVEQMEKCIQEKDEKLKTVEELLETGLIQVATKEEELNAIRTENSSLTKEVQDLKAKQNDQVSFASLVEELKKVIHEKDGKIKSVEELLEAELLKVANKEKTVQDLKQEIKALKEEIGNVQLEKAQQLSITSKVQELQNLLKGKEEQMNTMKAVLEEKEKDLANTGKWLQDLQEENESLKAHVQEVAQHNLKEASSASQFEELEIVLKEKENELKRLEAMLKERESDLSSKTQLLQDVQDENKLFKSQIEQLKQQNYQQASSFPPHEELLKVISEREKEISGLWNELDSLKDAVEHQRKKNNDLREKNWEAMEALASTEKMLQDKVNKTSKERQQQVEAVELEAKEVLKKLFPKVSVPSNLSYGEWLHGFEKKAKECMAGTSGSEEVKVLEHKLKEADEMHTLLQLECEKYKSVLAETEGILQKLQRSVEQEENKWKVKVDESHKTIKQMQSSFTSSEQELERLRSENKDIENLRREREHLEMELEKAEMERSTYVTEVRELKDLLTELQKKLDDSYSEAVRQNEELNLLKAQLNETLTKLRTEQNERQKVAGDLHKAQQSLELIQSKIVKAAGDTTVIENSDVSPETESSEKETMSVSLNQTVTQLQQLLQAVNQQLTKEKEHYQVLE
# UniProt P29017: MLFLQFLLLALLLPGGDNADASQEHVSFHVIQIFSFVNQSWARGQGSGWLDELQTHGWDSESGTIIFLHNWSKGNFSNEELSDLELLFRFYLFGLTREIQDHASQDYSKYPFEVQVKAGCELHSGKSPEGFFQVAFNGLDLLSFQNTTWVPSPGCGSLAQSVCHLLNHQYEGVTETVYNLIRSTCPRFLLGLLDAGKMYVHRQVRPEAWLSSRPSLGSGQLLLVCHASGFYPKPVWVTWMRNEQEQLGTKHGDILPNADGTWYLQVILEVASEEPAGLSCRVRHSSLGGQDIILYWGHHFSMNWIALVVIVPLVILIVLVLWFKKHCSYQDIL
# UniProt Q99933: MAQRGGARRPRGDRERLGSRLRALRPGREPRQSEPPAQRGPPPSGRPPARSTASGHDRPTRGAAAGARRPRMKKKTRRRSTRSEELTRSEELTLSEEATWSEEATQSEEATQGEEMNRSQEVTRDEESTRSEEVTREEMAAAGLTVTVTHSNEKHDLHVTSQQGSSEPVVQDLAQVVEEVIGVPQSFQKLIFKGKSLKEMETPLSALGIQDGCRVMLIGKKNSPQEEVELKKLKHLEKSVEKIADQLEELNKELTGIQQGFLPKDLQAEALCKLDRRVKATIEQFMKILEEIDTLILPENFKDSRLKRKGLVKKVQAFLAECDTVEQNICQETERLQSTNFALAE
# UniProt Q9UL33, whole entry: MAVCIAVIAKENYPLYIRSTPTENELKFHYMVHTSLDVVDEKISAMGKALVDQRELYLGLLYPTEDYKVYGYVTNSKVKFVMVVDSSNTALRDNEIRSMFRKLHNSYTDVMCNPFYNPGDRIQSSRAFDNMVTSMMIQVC
# Compound: Nc1ncnc2c1ncn2[C@@H]1O[C@H](COP(=O)(O)OP(=O)(O)NP(=O)(O)O)[C@@H](O)[C@H]1O [adenylyl imidodiphosphate]
# Assay: NP40-soluble protein abundance relative to vehicle (solubility fold change) (ratio); higher = more soluble protein in presence of AMP-PNP
# Outline: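 Data come from three independent experiments in which Dounce-homogenised Jurkat crude lysate was treated at eight concentrations from 0.1 to 10 mM. Treatment ran 10 min at room temperature and then 3 min at 37 °C, after which 0.8% NP40 and benzonase were added for 60 min at 4 °C before ultracentrifugation. The supernatant underwent TMT labelling and LC-MS/MS, and vsn-normalised intensities were expressed as fold change against the detergent-processed vehicle in each replicate.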
Target,NP40-soluble protein abundance (concentration: 0.1mM),NP40-soluble protein abundance (concentration: 0.5mM)
H3BUF6 and related entries (UniProt Q8WWM7),0.967 ± 0.025,1.01 ± 0.044
I3L072 and related entries (UniProt Q9BSJ5),0.989 ± 0.037,1 ± 0.038
H0YIS7 and related entries (UniProt Q8IXM2+H0YIS7),0.969 ± 0.018,1 ± 0.057
G5EA30 and related entries (UniProt Q92879),1 ± 0.033,1.05 ± 0.034
H0YBI6 and related entries (UniProt Q86VQ6),1.02 ± 0.011,0.99 ± 0.021
G5E9V5 and related entries (UniProt P82650),1.04 ± 0.046,0.984 ± 0.072
J3KNF5 and related entries (UniProt O15078),0.979 ± 0.026,0.967 ± 0.016
H0YIE9 and related entries (UniProt O94952),1.02 ± 0.021,1.01 ± 0.045
H0Y860 and related entries (UniProt Q9P246),0.972 ± 0.036,0.924 ± 0.019
H7C3D5 and related entries (UniProt Q8NC44),0.991 ± 0.044,0.989 ± 0.038
H7BZB3 and related entries (UniProt P27708),1.04 ± 0.028,1 ± 0.076
H0YL22 and related entries (UniProt Q9Y375),1.01 ± 0.025,1.01 ± 0.038
K7EIY6 and related entries (UniProt Q9BV68),0.995 ± 0.027,0.996 ± 0.034
H3BM21 and related entries (UniProt P05106+I3L4X8+H3BM21),0.992 ± 0.031,0.9977 ± 0.0079
H3BNM4 and related entries (UniProt Q8NBZ0),1 ± 0.013,1.1 ± 0.06
I6L8A6 and related entries (UniProt Q99708),0.948 ± 0.025,0.965 ± 0.041
H0YDM4 and related entries (UniProt Q86VS8),0.9768 ± 0.0072,0.993 ± 0.014
I3L1H5 and related entries (UniProt Q9BZG8),1.02 ± 0.003,1.02 ± 0.019
J3KPT4 and related entries (UniProt Q9H4I3),1 ± 0.029,1.01 ± 0.08
H0YKD8 and related entries (UniProt P46779),1.05 ± 0.03,1.05 ± 0.029
H0Y2S9 and related entries (UniProt Q6WCQ1),1.02 ± 0.058,1.01 ± 0.011
G3V529 and related entries (UniProt Q9GZR7),1.01 ± 0.033,1.01 ± 0.039
J3KPF0 (UniProt Q9Y4D8),1.01 ± 0.037,0.986 ± 0.051
I3L4C2 and related entries (UniProt Q9UQB8),1.01 ± 0.011,1.012 ± 0.0079

Target,NP40-soluble protein abundance (concentration: 0.1mM),NP40-soluble protein abundance (concentration: 0.5mM)
K7EJ78 and related entries (UniProt P62841),1.03 ± 0.06,1.05 ± 0.044
J3KR35 and related entries (UniProt Q8WUD4),0.993 ± 0.049,1.07 ± 0.078
H7C5D9 and related entries (UniProt O75427),1 ± 0.09,0.996 ± 0.085
H3BUV9 and related entries (UniProt Q96S82),1.05 ± 0.036,0.994 ± 0.035
G5E9C8 and related entries (UniProt Q07889),1.002 ± 0.0037,0.998 ± 0.029
H7C1N3 and related entries (UniProt O15155),0.979 ± 0.051,0.984 ± 0.065
G3V5P0 and related entries (UniProt Q86UP2),0.993 ± 0.035,1.01 ± 0.067
H7BXK9 and related entries (UniProt Q9NP58),0.9772 ± 0.0072,0.953 ± 0.016
H3BNX8 and related entries (UniProt P20674),1.04 ± 0.029,1.05 ± 0.073
I3L1K6 and related entries (UniProt P12829),0.94 ± 0.011,0.967 ± 0.011
H7BYF2 and related entries (UniProt Q9BVL2),0.969 ± 0.021,1 ± 0.082
G3XAC1 and related entries (UniProt Q9BXS9),1.01 ± 0.024,0.955 ± 0.023
H0YLF8 and related entries (UniProt P50213),1.03 ± 0.034,0.999 ± 0.017
H3BTA2 and related entries (UniProt P60510),0.979 ± 0.063,0.963 ± 0.1
H0YMG7 and related entries (UniProt O94788),1.03 ± 0.064,0.999 ± 0.062
H0YEU4 and related entries (UniProt Q03164),1.02 ± 0.056,1.01 ± 0.036
H0YL70 and related entries (UniProt Q04726),1.02 ± 0.038,0.973 ± 0.035
H7BXF5 and related entries (UniProt Q9H0E3),1.01 ± 0.013,1.02 ± 0.044
G3XAI2 and related entries (UniProt P07942),0.996 ± 0.021,0.983 ± 0.024
I3L2B0 and related entries (UniProt O75153),1.02 ± 0.038,0.995 ± 0.032
H0YIV9 and related entries (UniProt O43716+H0YIV9),0.998 ± 0.019,1.029 ± 0.0036
H0YJ21 and related entries (UniProt Q14204),1.05 ± 0.027,0.994 ± 0.083
H7C0G7 and related entries (UniProt Q9H9Q4),1.02 ± 0.012,1.05 ± 0.022
UniProt G3V599,0.982 ± 0.011,0.986 ± 0.037

Target,NP40-soluble protein abundance (concentration: 0.1mM),NP40-soluble protein abundance (concentration: 0.5mM)
H0Y6Y6 and related entries (UniProt P29017),0.9873 ± 0.0083,1 ± 0.025
J3KNA0 and related entries (UniProt Q15070),1.02 ± 0.025,0.977 ± 0.039
G5E9A6 and related entries (UniProt P51784),1.03 ± 0.041,0.989 ± 0.067
J3KNZ9 (UniProt Q9HAH7),0.982 ± 0.013,1.01 ± 0.013
H0YAA3 and related entries (UniProt Q9HAD4),1.05 ± 0.029,0.972 ± 0.044
J3KNL6 and related entries (UniProt O15027),1.01 ± 0.019,0.951 ± 0.051
J3KP06 and related entries (UniProt Q8WWI1),1.02 ± 0.051,1.05 ± 0.021
J3QQV6 and related entries (UniProt Q9NVS9),0.979 ± 0.037,0.984 ± 0.012
H3BVD9 and related entries (UniProt O43278),1.016 ± 0.01,1 ± 0.019
H0Y6A0 and related entries (UniProt Q9NP61),0.978 ± 0.024,0.953 ± 0.013
I3L3K7 and related entries (UniProt Q12968),0.98 ± 0.011,1.02 ± 0.019
J3KQ09 and related entries (UniProt Q9UNA4),1.02 ± 0.037,1 ± 0.037
I3L2J0 and related entries (UniProt Q96RK0),0.996 ± 0.052,0.972 ± 0.01
J3KPC5 and related entries (UniProt P47736),0.969 ± 0.016,0.983 ± 0.02
H7BY16 and related entries (UniProt P19338),0.941 ± 0.013,0.997 ± 0.07
J3QRS9 and related entries (UniProt O43670),1.07 ± 0.091,1.03 ± 0.022
H3BTB7 and related entries (UniProt Q5JPH6),1.05 ± 0.033,0.985 ± 0.053
H0Y473 and related entries (UniProt O75354),0.992 ± 0.021,0.982 ± 0.028
H3BRF9 and related entries (UniProt Q96K21),0.9639 ± 0.0082,0.963 ± 0.02
J3KP27 and related entries (UniProt Q9Y296),1.04 ± 0.013,0.988 ± 0.052
H0YEL0 and related entries (UniProt O14893),0.976 ± 0.023,0.971 ± 0.032
I3L2M1 and related entries (UniProt Q8WYJ6),1.01 ± 0.013,0.991 ± 0.027
H0Y9I3 and related entries (UniProt Q9HAV4),1.01 ± 0.037,0.963 ± 0.029
I6L8B7 and related entries (UniProt Q01469),0.997 ± 0.07,1.09 ± 0.085

# Not a retest: an excerpt of the list.
Target,NP40-soluble protein abundance (concentration: 0.1mM),NP40-soluble protein abundance (concentration: 0.5mM)
H0YJ21 and related entries (UniProt Q14204),1.05 ± 0.027,0.994 ± 0.083
H7C0G7 and related entries (UniProt Q9H9Q4),1.02 ± 0.012,1.05 ± 0.022
UniProt G3V599,0.982 ± 0.011,0.986 ± 0.037
H0Y6Y6 and related entries (UniProt P29017),0.9873 ± 0.0083,1 ± 0.025
J3KNA0 and related entries (UniProt Q15070),1.02 ± 0.025,0.977 ± 0.039
G5E9A6 and related entries (UniProt P51784),1.03 ± 0.041,0.989 ± 0.067
J3KNZ9 (UniProt Q9HAH7),0.982 ± 0.013,1.01 ± 0.013
H0YAA3 and related entries (UniProt Q9HAD4),1.05 ± 0.029,0.972 ± 0.044
J3KNL6 and related entries (UniProt O15027),1.01 ± 0.019,0.951 ± 0.051
J3KP06 and related entries (UniProt Q8WWI1),1.02 ± 0.051,1.05 ± 0.021
J3QQV6 and related entries (UniProt Q9NVS9),0.979 ± 0.037,0.984 ± 0.012
H3BVD9 and related entries (UniProt O43278),1.016 ± 0.01,1 ± 0.019
H0Y6A0 and related entries (UniProt Q9NP61),0.978 ± 0.024,0.953 ± 0.013
I3L3K7 and related entries (UniProt Q12968),0.98 ± 0.011,1.02 ± 0.019
J3KQ09 and related entries (UniProt Q9UNA4),1.02 ± 0.037,1 ± 0.037
I3L2J0 and related entries (UniProt Q96RK0),0.996 ± 0.052,0.972 ± 0.01
J3KPC5 and related entries (UniProt P47736),0.969 ± 0.016,0.983 ± 0.02
H7BY16 and related entries (UniProt P19338),0.941 ± 0.013,0.997 ± 0.07
J3QRS9 and related entries (UniProt O43670),1.07 ± 0.091,1.03 ± 0.022
H3BTB7 and related entries (UniProt Q5JPH6),1.05 ± 0.033,0.985 ± 0.053
H0Y473 and related entries (UniProt O75354),0.992 ± 0.021,0.982 ± 0.028
H3BRF9 and related entries (UniProt Q96K21),0.9639 ± 0.0082,0.963 ± 0.02
J3KP27 and related entries (UniProt Q9Y296),1.04 ± 0.013,0.988 ± 0.052
H0YEL0 and related entries (UniProt O14893),0.976 ± 0.023,0.971 ± 0.032
I3L2M1 and related entries (UniProt Q8WYJ6),1.01 ± 0.013,0.991 ± 0.027
H0Y9I3 and related entries (UniProt Q9HAV4),1.01 ± 0.037,0.963 ± 0.029

# Further entries follow.

Target,NP40-soluble protein abundance (concentration: 0.1mM),NP40-soluble protein abundance (concentration: 0.5mM)
J3QTA2 and related entries (UniProt Q99933),0.982 ± 0.02,0.994 ± 0.016
J3QR07 and related entries (UniProt Q96MU7),1.01 ± 0.058,1.04 ± 0.072
H3BSS6 and related entries (UniProt Q9H2Y7),0.998 ± 0.017,1.01 ± 0.019
J3KN16 and related entries (UniProt Q5VYK3+J3KN16),1.01 ± 0.017,1 ± 0.027
H3BLS7 and related entries (UniProt Q5THJ4),0.964 ± 0.087,0.971 ± 0.041
J3KQ48 and related entries (UniProt Q9Y3E5),1.02 ± 0.018,1.03 ± 0.032
H3BP13 and related entries (UniProt Q9UL33),1 ± 0.027,1.02 ± 0.025
H7C2Q8 and related entries (UniProt Q99848),1 ± 0.018,0.996 ± 0.033
J3KS94 and related entries (UniProt P02686),0.97 ± 0.015,1.01 ± 0.083
H3BQ24 and related entries (UniProt Q9Y2M0),0.934 ± 0.047,0.943 ± 0.18
H0YMI4 and related entries (UniProt Q9Y6I4),1.025 ± 0.0045,1 ± 0.044
H0YM31 and related entries (UniProt Q16822),1.01 ± 0.019,0.988 ± 0.03
H3BUV4 and related entries (UniProt Q9NWW5),1.07 ± 0.042,1.08 ± 0.057
J9JIE6 and related entries (UniProt Q9UM00),0.984 ± 0.037,1.02 ± 0.053
H7BZJ3 and related entries (UniProt P30101),0.9977 ± 0.0065,1.02 ± 0.053
J3KPH8 and related entries (UniProt Q8WUI4),1.01 ± 0.047,0.968 ± 0.043
J3QS69 and related entries (UniProt P60842),1.05 ± 0.046,1.06 ± 0.069
H1UBN3 and related entries (UniProt O95067+H1UBN3),0.992 ± 0.043,0.99 ± 0.017
H0Y9X1 and related entries (UniProt Q96EY4),0.961 ± 0.011,0.966 ± 0.012
H0YAV1 and related entries (UniProt Q7LG56),0.99 ± 0.042,0.96 ± 0.011
J3KQH6 and related entries (UniProt P78364),1 ± 0.032,1.01 ± 0.051
J3KTA4 and related entries (UniProt P17844),0.935 ± 0.14,1.05 ± 0.046

# — the supplement of paper PMC6411743
